# PubChem BioAssay AID2685 (National Center for Advancing Translational Sciences (NCATS), 2010)
# Some of the results follow. The main result of the screen is listed elsewhere. These columns were measured beside it and carry no call. The list favours compounds with an active or inconclusive main result. The note in brackets gives the kind of curve behind each potency; many fits are weak.
# Assay: qHTS Assay for Lipid Storage Modulators in Drosophila S3 Cells;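 on cell number change: cells counted by Cell Tracker Red CMTPX staining in the red channel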
# Conditions: BODIPY lipid droplet fluorescence, 18-24 h; for cell number change: measured here: cell count max response, cells fed with added oleic acid
# How it was run: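 Drosophila S3 cells got compounds at several concentrations plus oleic acid (400 uM solution). Laser-scanning cytometry with 488 nm excitation read lipid droplets at 500-530 nm and cells at 575-640 nm. Percent activity was relative to 20 uM Triacsin C.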
# [1] = measured here: lipid fluorescence (Fed channel) AC50, cells fed with added oleic acid
# [2] = measured here: cell number channel AC50, cells fed with added oleic acid
SMILES,cell number change,AC50 [1],AC50 [2]
COc1ccccc1C(=O)COC(=O)Cc1n[nH]c(=O)c2ccccc12,-14.5%,,
COc1ccccc1C(=O)Nc1ccc2c(c1)nc1n2CCSC1,,"0.164 µM [rising, full curve, poor fit]",
CN1CCN(NC(=O)c2cc(Br)ccc2Cl)CC1,-10.1%,"0.164 µM [falling, full curve]",
CCC(Cc1ccccc1)NS(=O)(=O)c1ccc2c(c1)NC(=O)C(C)S2 (stereo not drawn),,"29.1 µM [falling, single point]",
Cn1cc(S(=O)(=O)NC2CCCCCC2)c(=O)n(C)c1=O,6.74%,,"4.11 µM [rising, partial curve, poor fit]"
COc1ccc(CCNC2CCN(C)CC2)cc1OC,2.64%,"5.8 µM [falling, partial curve]",
CCOC(=O)N1CCN(C/C(C)=C/c2ccccc2)CC1,39%,,"29.1 µM [rising, single point]"
CCc1ccc(OCC(O)CN2CCN(c3ccc(OC)cc3)CC2)cc1 (stereo not drawn),-0.37%,"32.6 µM [falling, single point]",
CC(=O)NC1CC2CCCC(C1)N2S(=O)(=O)c1ccccc1 (stereo not drawn),33.1%,"0.231 µM [rising, full curve, poor fit]","25.9 µM [rising, single point]"
CCCCCOc1ccc(NC(=O)C(=O)NCCCn2ccnc2)cc1,7.82%,"2.31 µM [falling, partial curve, poor fit]",
CC(C)(C)NS(=O)(=O)c1cc(C(=O)O)ccc1Cl,-48.2%,"29.1 µM [falling, single point]","29.1 µM [falling, single point]"
COC(=O)c1cccc(NC(=O)C2CCCN2C(=O)c2cccs2)c1 (stereo not drawn),-99.1%,,"29.1 µM [falling, single point]"
CC(C)(C)c1ccc(C(=O)N2CCN(c3nc4ccccc4o3)CC2)cc1,-32.1%,"0.92 µM [falling, full curve, poor fit]","9.2 µM [falling, partial curve]"
COc1ccc(/C=N/NC(=O)c2ccc(COc3cccc4cccnc34)cc2)cc1OC,,"0.146 µM [rising, partial curve, poor fit]",
O=[N+]([O-])c1ccc(Cl)c(/C=N/N2CCN(Cc3ccccc3Cl)CC2)c1,-11.1%,"0.259 µM [rising, full curve, poor fit]",
COc1ccccc1Sc1ccccc1/C=N/NC(N)=O,18.6%,,
Cn1c(CCCOc2ccc(Cl)cc2Cl)nnc1SCC(=O)Nc1nccs1,-25.3%,"29.1 µM [falling, partial curve]",
Cc1n[nH]c(C)c1CCCOc1ccccc1,75.4%,"13 µM [rising, partial curve]","3.66 µM [rising, full curve]"
COc1ccc(C)cc1NC(=O)C1CCCN1S(=O)(=O)c1ccc2c(c1)CCC(=O)N2 (stereo not drawn),-1.39%,"0.13 µM [rising, full curve, poor fit]",
Cc1c(N(C)C(=O)COc2ccc3ccccc3c2)c(=O)n(-c2ccccc2)n1C,52.4%,,"0.082 µM [rising, full curve, poor fit]"

SMILES,cell number change,AC50 [1],AC50 [2]
Cc1ccc(-c2nc3ccccc3n3c(C)nnc23)cc1,-90.6%,"1.84 µM [rising, single point]","29.1 µM [falling, single point]"
COc1cccc(N2C(=O)c3cccnc3C2O)c1 (stereo not drawn),-9.33%,,
COc1ccccc1CCNS(=O)(=O)CCNC(=O)c1ccc2c(c1)OCO2,-8.33%,"0.092 µM [falling, full curve, poor fit]",
O=c1c(C/C=C/c2ccccc2)c(O)ccn1CCc1c[nH]c2ccccc12,-62%,"15.8 µM [falling, partial curve]","11.2 µM [falling, partial curve]"
CCOc1ccc2cc(C#N)c(SCC(=O)N3CCC(C)CC3)nc2c1,37.5%,"3.66 µM [rising, partial curve]","3.26 µM [rising, single point]"
COc1ccccc1CNC(=O)C1CCN(c2ncnc3c2nc2n3CCCCC2)CC1,,"1.03 µM [rising, full curve, poor fit]",
CCCc1nc2sc(C(=O)OCC)c(N)c2c2c1COC(C)(C)C2,9.85%,"6.51 µM [rising, single point]","0.184 µM [rising, partial curve]"
C=C(C)C1Cc2c(C)nn(-c3nc(C)cc(C)n3)c2C1 (stereo not drawn),-9.33%,"0.259 µM [rising, partial curve, poor fit]",
Cc1ccc(S(=O)(=O)/N=S(\C)CC2CC2(Cl)Cl)cc1 (stereo not drawn),23.9%,"0.58 µM [rising, single point]",
CN1CCCN(C(=O)CNC(=O)Cc2ccccc2)CC1,33.4%,,"29.1 µM [rising, single point]"
C/C(=N\NC(=S)Nc1ccc(F)cc1)C1CC1,,"0.731 µM [rising, single point]",
Cc1ccc(NC(=O)C2CCN(S(=O)(=O)c3cccs3)CC2)cc1C,-36.1%,"20.6 µM [falling, single point]","16.4 µM [falling, single point]"
Cc1cc(C)cc(C(=O)NC(CC(N)=O)c2ccc(N3CCN(c4ccccc4)CC3)c([N+](=O)[O-])c2)c1 (stereo not drawn),16.8%,,
CN1CCN(CC#CCC(O)(c2ccccc2)c2ccccc2)CC1,-8.65%,"3.26 µM [rising, single point]",
CCOC(=O)CCCNC(=O)CCCNC(=O)C(c1ccccc1)c1ccccc1,-4.09%,"29.1 µM [falling, single point]",
O=C(NCC(c1ccco1)N1CCc2ccccc2C1)c1ccccc1 (stereo not drawn),-20.5%,,
Cc1ccccc1OCC(=O)Nc1ccc(N2CCOCC2)cc1N1CCOCC1,-16.5%,"2.06 µM [rising, partial curve, poor fit]",
CCOc1cc(-c2cc(-c3ccc(OC)cc3)nc(N)c2C#N)ccc1O,-14.1%,,"0.103 µM [falling, full curve, poor fit]"
CCCCOc1ccc(Cl)cc1CSc1nnc(C)n1N,,,"3.26 µM [rising, single point]"
CC(C)c1ccc(NC(=O)CSc2nc3ccsc3c(=O)n2CCC(=O)O)cc1,105%,"29.1 µM [falling, partial curve]","16.4 µM [rising, single point]"

# Retrieved by compound from the entries so far, 5 records:
SMILES,cell number change,AC50 [1],AC50 [2]
Cc1cc(C)cc(C(=O)NC(CC(N)=O)c2ccc(N3CCN(c4ccccc4)CC3)c([N+](=O)[O-])c2)c1 (stereo not drawn),16.8%,,
O=C(NCC(c1ccco1)N1CCc2ccccc2C1)c1ccccc1 (stereo not drawn),-20.5%,,
COc1ccccc1CCNS(=O)(=O)CCNC(=O)c1ccc2c(c1)OCO2,-8.33%,"0.092 µM [falling, full curve, poor fit]",
C=C(C)C1Cc2c(C)nn(-c3nc(C)cc(C)n3)c2C1 (stereo not drawn),-9.33%,"0.259 µM [rising, partial curve, poor fit]",
CCOC(=O)CCCNC(=O)CCCNC(=O)C(c1ccccc1)c1ccccc1,-4.09%,"29.1 µM [falling, single point]",

# (list continues)

SMILES,cell number change,AC50 [1],AC50 [2]
O=c1c2ccccc2oc2ccc(NCCCN3CCOCC3)cc12,-1.94%,"20.6 µM [rising, partial curve]",
O=C(N/C(=C\c1ccc(Br)cc1)C(=O)N1CCCC1)c1cccs1,7.44%,,
CNC(=S)N1CCN(c2ccc(Cl)c(Cl)c2)CC1,4%,"29.1 µM [falling, single point]",
C/C(=N\NC(=O)c1nnn(-c2nonc2N)c1CSc1ccccc1)c1cccnc1,-15.3%,,
CCc1ccc2c(c1)C1(NN=C(c3ccccc3)S1)C(=O)N2 (stereo not drawn),-69.3%,"25.9 µM [falling, partial curve]","25.9 µM [falling, partial curve]"
CCCCCCCCCCCCCCCC[N+](C)(C)CC,-61.1%,"11.6 µM [falling, partial curve]","14.6 µM [falling, partial curve, poor fit]"
CCOc1cc(N2CCOCC2)c(OCC)cc1NC(=O)c1c(C)noc1C,1.39%,"7.31 µM [rising, partial curve]",
COc1ccc(CNC(=S)NCc2ccc(F)cc2)cc1OC,-33.2%,,
COc1ccc(-c2csc(NC(C)=O)n2)cc1OC,-1.79%,"1.84 µM [rising, partial curve]",
COC(=O)c1cc(=O)nc2sccn12,19.8%,"0.651 µM [falling, single point]","0.231 µM [rising, full curve, poor fit]"
O=C(COc1ccc([N+](=O)[O-])cc1)Nc1cc(S(=O)(=O)N2CCCCC2)ccc1N1CCCCC1,42.9%,"9.2 µM [rising, partial curve]","8.2 µM [rising, partial curve]"
Cc1cc(Cl)ccc1OCC(O)CNCCc1ccc(S(N)(=O)=O)cc1 (stereo not drawn),,"29.1 µM [rising, single point]",
CC(/C=C1\NC(=S)NC1=O)=C\c1ccccc1,-30.6%,"0.0517 µM [falling, full curve, poor fit]","16.4 µM [falling, single point]"
COc1ccc(Cl)cc1C(=O)n1nc(C)cc1C,34.3%,"6.51 µM [falling, single point]","6.51 µM [rising, partial curve, poor fit]"
CC[C@H](C)[C@H](NS(=O)(=O)c1ccc(C)cc1)C(=O)N1CCC(C(=O)N[C@@H](C)C(=O)O)CC1,-35.1%,"0.82 µM [falling, full curve, poor fit]","0.651 µM [falling, full curve]"
Nc1ncc([N+](=O)[O-])c(Oc2ccccc2F)n1,-17.5%,"0.231 µM [falling, full curve]",
COc1ccccc1CNC(=O)CN1C(=O)c2ccc([N+](=O)[O-])cc2C1=O,6.58%,"5.62 µM [rising, single point]",
COc1ccccc1-c1nc(C#N)c(N2CCC(C(N)=O)CC2)o1,-0.713%,"23.1 µM [falling, single point]",
